Read-outs that look alike come from different tables or passages of the source. These are yes or no findings as the source states them, for the method shown. Binding seen in cells or lysates may run through a third protein. Some entries that bind do so weakly or less than the wild type. Sequences can lack the tags named with a protein.
T1: GFP-Rabenosyn-5 (human) (UniProt Q9H1K0)
T1 sequence: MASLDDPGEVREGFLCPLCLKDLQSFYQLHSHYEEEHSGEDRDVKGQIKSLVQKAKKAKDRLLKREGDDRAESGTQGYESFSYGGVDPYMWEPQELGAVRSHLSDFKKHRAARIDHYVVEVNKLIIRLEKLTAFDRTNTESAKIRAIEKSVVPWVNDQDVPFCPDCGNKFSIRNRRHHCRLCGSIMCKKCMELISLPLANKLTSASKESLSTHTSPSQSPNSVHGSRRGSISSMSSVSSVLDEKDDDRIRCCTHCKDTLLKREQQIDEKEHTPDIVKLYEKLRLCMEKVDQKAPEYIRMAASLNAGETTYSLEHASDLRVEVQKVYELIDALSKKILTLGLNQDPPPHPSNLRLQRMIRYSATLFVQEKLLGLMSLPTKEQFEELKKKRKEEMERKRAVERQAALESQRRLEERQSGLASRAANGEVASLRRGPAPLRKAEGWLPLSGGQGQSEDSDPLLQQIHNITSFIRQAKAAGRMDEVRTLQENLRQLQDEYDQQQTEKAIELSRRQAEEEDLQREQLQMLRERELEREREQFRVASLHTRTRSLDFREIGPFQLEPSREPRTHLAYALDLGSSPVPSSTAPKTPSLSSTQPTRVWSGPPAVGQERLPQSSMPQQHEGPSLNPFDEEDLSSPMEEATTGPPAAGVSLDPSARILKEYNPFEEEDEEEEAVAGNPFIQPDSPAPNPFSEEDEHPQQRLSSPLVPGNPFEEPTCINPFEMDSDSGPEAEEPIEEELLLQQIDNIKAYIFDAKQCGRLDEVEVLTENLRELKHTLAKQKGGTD

Protein sequences, listed by entry. Tags and fused reporters are not part of them.
UniProt P16157: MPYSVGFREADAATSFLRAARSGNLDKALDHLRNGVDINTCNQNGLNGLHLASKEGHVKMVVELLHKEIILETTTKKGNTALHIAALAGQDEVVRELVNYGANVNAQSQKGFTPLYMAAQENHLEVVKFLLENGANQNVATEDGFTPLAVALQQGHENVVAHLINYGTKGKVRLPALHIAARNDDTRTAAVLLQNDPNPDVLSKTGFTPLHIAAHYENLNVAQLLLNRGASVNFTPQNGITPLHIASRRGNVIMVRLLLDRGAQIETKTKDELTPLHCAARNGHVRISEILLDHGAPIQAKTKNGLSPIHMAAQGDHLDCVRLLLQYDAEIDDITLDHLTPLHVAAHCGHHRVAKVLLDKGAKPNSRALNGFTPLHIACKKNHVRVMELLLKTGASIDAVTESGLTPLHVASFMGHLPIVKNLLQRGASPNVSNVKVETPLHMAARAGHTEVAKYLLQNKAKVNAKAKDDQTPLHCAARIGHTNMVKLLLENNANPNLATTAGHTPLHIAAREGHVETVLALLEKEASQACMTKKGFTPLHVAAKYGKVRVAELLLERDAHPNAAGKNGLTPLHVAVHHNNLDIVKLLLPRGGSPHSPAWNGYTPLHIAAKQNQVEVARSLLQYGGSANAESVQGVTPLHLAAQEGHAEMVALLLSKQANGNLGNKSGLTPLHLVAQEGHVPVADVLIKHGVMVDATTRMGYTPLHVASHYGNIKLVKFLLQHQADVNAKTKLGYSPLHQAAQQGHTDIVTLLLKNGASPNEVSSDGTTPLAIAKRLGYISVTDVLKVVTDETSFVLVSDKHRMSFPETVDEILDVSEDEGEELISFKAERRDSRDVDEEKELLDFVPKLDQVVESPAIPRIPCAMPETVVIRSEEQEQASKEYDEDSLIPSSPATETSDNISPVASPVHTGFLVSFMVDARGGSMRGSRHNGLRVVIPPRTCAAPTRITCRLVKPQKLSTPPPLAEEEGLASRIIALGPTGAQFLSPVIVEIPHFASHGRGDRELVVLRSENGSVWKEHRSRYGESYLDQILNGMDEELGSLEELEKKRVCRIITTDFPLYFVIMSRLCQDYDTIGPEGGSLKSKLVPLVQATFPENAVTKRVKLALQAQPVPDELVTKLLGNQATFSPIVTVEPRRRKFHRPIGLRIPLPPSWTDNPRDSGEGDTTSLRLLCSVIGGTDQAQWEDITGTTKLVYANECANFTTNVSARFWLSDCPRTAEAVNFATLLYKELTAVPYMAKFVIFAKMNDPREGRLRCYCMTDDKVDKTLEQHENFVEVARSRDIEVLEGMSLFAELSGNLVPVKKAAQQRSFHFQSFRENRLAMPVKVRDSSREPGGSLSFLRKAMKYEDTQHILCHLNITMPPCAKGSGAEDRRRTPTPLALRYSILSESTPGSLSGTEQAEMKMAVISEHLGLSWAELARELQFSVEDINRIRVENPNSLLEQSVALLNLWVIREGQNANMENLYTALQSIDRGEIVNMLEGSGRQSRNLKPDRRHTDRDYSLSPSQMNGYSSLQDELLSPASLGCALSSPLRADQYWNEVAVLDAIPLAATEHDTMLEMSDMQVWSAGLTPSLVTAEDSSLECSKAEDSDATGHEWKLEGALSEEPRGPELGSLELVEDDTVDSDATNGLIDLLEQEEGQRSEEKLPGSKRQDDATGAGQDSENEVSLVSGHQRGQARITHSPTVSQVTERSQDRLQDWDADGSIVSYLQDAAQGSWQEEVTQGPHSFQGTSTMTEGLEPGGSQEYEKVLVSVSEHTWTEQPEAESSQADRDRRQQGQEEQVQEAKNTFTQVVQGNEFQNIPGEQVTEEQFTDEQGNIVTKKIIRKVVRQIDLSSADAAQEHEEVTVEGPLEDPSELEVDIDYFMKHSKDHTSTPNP
UniProt Q7L804: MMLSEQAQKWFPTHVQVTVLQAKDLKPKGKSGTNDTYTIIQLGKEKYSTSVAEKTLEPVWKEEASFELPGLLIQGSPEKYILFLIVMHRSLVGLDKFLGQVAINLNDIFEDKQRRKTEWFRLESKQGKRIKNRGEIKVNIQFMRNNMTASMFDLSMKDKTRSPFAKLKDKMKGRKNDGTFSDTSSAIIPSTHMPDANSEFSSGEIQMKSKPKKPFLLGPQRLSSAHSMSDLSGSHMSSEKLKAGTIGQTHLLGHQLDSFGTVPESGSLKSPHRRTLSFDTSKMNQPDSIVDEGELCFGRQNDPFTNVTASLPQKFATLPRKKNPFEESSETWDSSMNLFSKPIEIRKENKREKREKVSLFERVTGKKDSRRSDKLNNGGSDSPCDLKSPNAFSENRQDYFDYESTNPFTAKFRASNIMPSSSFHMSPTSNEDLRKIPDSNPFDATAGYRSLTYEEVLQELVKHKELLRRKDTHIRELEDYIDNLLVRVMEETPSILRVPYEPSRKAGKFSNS

T2: SPE-39-GST (C. elegans) (UniProt Q23288)
T2 sequence: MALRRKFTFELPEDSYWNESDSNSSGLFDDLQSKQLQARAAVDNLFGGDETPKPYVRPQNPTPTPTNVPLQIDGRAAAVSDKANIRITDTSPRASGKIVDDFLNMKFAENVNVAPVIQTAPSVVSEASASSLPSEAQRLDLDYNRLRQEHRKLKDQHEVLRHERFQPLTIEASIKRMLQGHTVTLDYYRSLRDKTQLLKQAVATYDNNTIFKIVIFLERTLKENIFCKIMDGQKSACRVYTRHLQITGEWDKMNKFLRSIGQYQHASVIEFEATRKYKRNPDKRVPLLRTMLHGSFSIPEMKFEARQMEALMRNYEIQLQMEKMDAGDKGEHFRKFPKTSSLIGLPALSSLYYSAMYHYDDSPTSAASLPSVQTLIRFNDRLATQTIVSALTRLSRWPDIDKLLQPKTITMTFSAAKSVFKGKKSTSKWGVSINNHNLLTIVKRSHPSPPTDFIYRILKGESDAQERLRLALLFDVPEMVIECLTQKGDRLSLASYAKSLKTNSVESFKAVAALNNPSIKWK

T3: GFP-VIPAS39 (human) (UniProt Q9H9C1)
T3 sequence: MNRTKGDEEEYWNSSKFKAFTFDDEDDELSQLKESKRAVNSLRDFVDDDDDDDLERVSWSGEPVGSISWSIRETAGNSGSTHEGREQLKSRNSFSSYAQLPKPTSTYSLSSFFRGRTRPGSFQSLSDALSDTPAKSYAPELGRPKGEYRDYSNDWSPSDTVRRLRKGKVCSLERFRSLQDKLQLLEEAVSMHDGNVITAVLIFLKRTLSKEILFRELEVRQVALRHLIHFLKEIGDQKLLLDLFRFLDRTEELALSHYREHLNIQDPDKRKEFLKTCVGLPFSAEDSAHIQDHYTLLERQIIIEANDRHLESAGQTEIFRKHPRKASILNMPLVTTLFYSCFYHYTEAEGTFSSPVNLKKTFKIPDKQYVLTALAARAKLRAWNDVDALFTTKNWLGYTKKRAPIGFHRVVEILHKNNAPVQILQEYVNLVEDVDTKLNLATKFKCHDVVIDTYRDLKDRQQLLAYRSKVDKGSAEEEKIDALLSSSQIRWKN


What was measured:
[1] = target: T1, GFP-Rabenosyn-5 (human); test: co-IP
[2] = target: T2, SPE-39-GST (C. elegans); test: pull-down
[3] = target: T3, GFP-VIPAS39 (human); test: co-IP
[4] = target: T1, GFP-Rabenosyn-5 (human); test: co-IP; remark: listed apart in the source

| Molecule | binding [1] | binding [2] | binding [3] | other results |
| --- | --- | --- | --- | --- |
| myc-ANK1 (from UniProt P16157 1-1881) | binds | – | – | – |
| VPS-33.2 (protein, UniProt Q18891 1-617) MAPGTAELEIDETLHLLRMVMQREFIHYLETLPGTKELFIDKCLLRPLDMIATSSDMKRHGVKRIMHFDLQKSPQVWNIEIDQRVFFLRPNVENARKIVEYVEESSENRSICVIWCNRQLEECDLAFESSGVIGHITQLSLNMCLLPLESDLFSLQHVESAQPDLFSVANMFVALQNLYGVIPTVYGLGSESKNLWNLVHALCSSNELRARPDQPISHLFLFDRQLDPVPVLLTGASYEGLLHEFFTIDCGKLAFPVDLRKQVQTGPLDFDWIEINPEEDKEAHQQNRGDTVKLDNCEDIFASIRNKHVTAALEFLHSKAKSIQKSIEKSSMIDDVADYRNFVEKDLRALKKDHKHCELHINACEMMMNKVKMEDYRTMFKLEHEMLLGTVTHEEYFDFVFERVPMRSCRDVVLSMMSLASLKLDGVPDDTYNEFVEMYLQKYGYEHMFELQNLRNSRVIYARRHIAHDRTISERARTWETLARKFRIVKGNEPMDMSNPSDMSYVFGARISPLLCKIVEDTIDHGWNQAEYERIIGKDKVLVEENTYIAADRRPDNRTRKAIMVFVNGGITYWEVAALRLLAIQKNFRILICTTHVIKKREYLEVRAKDASSVFGS | – | binds | – | – |
| VPS-33.1 (protein, UniProt P34260 1-603) MAANEDRDDAAAILNWEGTSEIKSANEYSRNLLFSVLDSLDGNKTIVWDRDRSVMHRVNLFAGASVLAAHGVVANHSIETKKSASTPHVVFFLAPTMVSLDLLCDYIDNVRNDSKILYQVFFIPEAWFVVRESLKTRAEGKYWERLESVKEIPLCWLPRDGECLSLSSPQIAARLLINGDWTHLHKCAVALNQLIDMCRGRSSSSNQRPMSIYAKGKWASDVAKMMGKIRNSAEADSMTKNLDPIEGLLKINRIVLIDRWMDPLTPMLSQLTFYGLLDEIYGIGMVNSVKVPEMEFKNEKDGDPFQEKEVYLIDEVYHRLKHSHINAVSIEASKVLAEIRDDEQFDRDKMSVAEYSVLVKKMPKIINRKKMIEVHMRLAEMIQSHVYCKQSDSIKLERDLLEYSDSDKAIPLIEDLIFDASPLNAVLRLISVHSLTCGGLKPSVLQHYRRIVNQSYGSSALNKVLKMQKMGLIREKGGGGKMQCEYAQMMFQQMKKNHDMLPEEFSEAKLDDMAYAYSGFSPLLCKMLEEGDRVKWVGWPKTVIGDKSDLIAERDGRGTCVFVIGGLTRSELAIIRENLPNVALITTSALITGDKLLNNITNI | – | no binding | – | – |

Now from value to molecule, other results behind:

| binding [1] | binding [2] | binding [3] | Molecule | other results |
| --- | --- | --- | --- | --- |
| no binding | – | – | myc-Rab11FIP2 (from UniProt Q7L804 1-512) | – |
| – | – | binds | myc-VPS45 (protein, UniProt Q9NRW7 1-570) MNVVFAVKQYISKMIEDSGPGMKVLLMDKETTGIVSMVYTQSEILQKEVYLFERIDSQNREIMKHLKAICFLRPTKENVDYIIQELRRPKYTIYFIYFSNVISKSDVKSLAEADEQEVVAEVQEFYGDYIAVNPHLFSLNILGCCQGRNWDPAQLSRTTQGLTALLLSLKKCPMIRYQLSSEAAKRLAECVKQVITKEYELFEFRRTEVPPLLLILDRCDDAITPLLNQWTYQAMVHELLGINNNRIDLSRVPGISKDLREVVLSAENDEFYANNMYLNFAEIGSNIKNLMEDFQKKKPKEQQKLESIADMKAFVENYPQFKKMSGTVSKHVTVVGELSRLVSERNLLEVSEVEQELACQNDHSSALQNIKRLLQNPKVTEFDAARLVMLYALHYERHSSNSLPGLMMDLRNKGVSEKYRKLVSAVVEYGGKRVRGSDLFSPKDAVAITKQFLKGLKGVENVYTQHQPFLHETLDHLIKGRLKENLYPYLGPSTLRDRPQDIIVFVIGGATYEEALTVYNLNRTTPGVRIVLGGTTVHNTKSFLEEVLASGLHSRSKESSQVTSRSASRR | binding [4]: binds |
| – | – | binds | myc-Rabenosyn-5 (protein, UniProt Q9H1K0 1-784) MASLDDPGEVREGFLCPLCLKDLQSFYQLHSHYEEEHSGEDRDVKGQIKSLVQKAKKAKDRLLKREGDDRAESGTQGYESFSYGGVDPYMWEPQELGAVRSHLSDFKKHRAARIDHYVVEVNKLIIRLEKLTAFDRTNTESAKIRAIEKSVVPWVNDQDVPFCPDCGNKFSIRNRRHHCRLCGSIMCKKCMELISLPLANKLTSASKESLSTHTSPSQSPNSVHGSRRGSISSMSSVSSVLDEKDDDRIRCCTHCKDTLLKREQQIDEKEHTPDIVKLYEKLRLCMEKVDQKAPEYIRMAASLNAGETTYSLEHASDLRVEVQKVYELIDALSKKILTLGLNQDPPPHPSNLRLQRMIRYSATLFVQEKLLGLMSLPTKEQFEELKKKRKEEMERKRAVERQAALESQRRLEERQSGLASRAANGEVASLRRGPAPLRKAEGWLPLSGGQGQSEDSDPLLQQIHNITSFIRQAKAAGRMDEVRTLQENLRQLQDEYDQQQTEKAIELSRRQAEEEDLQREQLQMLRERELEREREQFRVASLHTRTRSLDFREIGPFQLEPSREPRTHLAYALDLGSSPVPSSTAPKTPSLSSTQPTRVWSGPPAVGQERLPQSSMPQQHEGPSLNPFDEEDLSSPMEEATTGPPAAGVSLDPSARILKEYNPFEEEDEEEEAVAGNPFIQPDSPAPNPFSEEDEHPQQRLSSPLVPGNPFEEPTCINPFEMDSDSGPEAEEPIEEELLLQQIDNIKAYIFDAKQCGRLDEVEVLTENLRELKHTLAKQKGGTD | – |

— publication doi:10.1101/500082
